No constants are given. Whether binding was seen depends on the method and setting. In cells and extracts the contact can be indirect. Tags and fused reporters may be left off the sequences shown.
Target: T1, KRT9-Myc (human (cDNA from HEK293T mRNA)) (UniProt P35527)
T1 sequence: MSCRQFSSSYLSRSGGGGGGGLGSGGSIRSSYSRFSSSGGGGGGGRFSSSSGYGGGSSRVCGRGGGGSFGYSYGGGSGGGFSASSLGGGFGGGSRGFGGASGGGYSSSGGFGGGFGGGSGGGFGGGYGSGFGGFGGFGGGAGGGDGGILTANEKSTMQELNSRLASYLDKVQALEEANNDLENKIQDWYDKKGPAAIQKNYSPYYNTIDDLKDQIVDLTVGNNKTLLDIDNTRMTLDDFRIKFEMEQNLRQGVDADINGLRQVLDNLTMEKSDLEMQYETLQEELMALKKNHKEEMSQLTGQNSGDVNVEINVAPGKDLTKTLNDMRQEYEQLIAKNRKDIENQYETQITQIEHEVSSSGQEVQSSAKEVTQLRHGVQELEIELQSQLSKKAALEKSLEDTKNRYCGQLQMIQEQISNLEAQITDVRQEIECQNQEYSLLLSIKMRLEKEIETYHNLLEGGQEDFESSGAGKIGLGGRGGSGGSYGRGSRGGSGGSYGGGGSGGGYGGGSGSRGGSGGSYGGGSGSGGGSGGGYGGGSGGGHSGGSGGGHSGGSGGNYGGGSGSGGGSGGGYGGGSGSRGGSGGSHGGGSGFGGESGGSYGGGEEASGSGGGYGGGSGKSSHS
Assay: co-IP; […] (20 mM Tris-HCl pH 7.5, 100 mM NaCl, 0.1 mM EDTA, 0.05% Tween-20); […]

## GBP5-Flag △C (domain or fragment)
  binding: no binding

From article PMC11852966
